From US20080081284A1, “OPTICAL INFORMATION RECORDING MEDIUM” (FUJIFILM Corporation, priority 2006, published 2008)
Some compounds share one wording; it may come from a single statement.

Experiment: Evaluation of C/N (carrier-to-noise ratio) of optical information recording medium
Design: key to Recording/reproducing properties (Pit reading before Xe lamp irradiation): Evaluated as “Excellent” when the 2T recording C/N was 35 dB or more; evaluated as “Good” when the ratio was 30 dB or more and less than 35 dB; evaluated as “Poor” when the ratio was less than 30 dB; Impossible: The recording layer could not sufficiently be formed due to poor solubility, resulting in recording failure
Conditions: for use in discs and formation of a recording pit: disc made in the same manner as Example 1; for Recording/reproducing properties (Pit reading before Xe lamp irradiation): 2T recording C/N, 403-nm laser, NA 0.85, recording power 5 mW

SMILES	use in discs and formation of a recording pit	Recording/reproducing properties (Pit reading before Xe lamp irradiation)
CN(C)C(=O)n1nc(C(C)(C)C)c(C#N)c1N=Nc1c(C(C)(C)C)nn(C)c1N [(A-2)]	a recording pit could be formed	–
Cc1nn2nc(C(C)(C)C)c(/N=N/c3c(C#N)c(C(C)(C)C)nn3C)c2n1C [(A-13)]	a recording pit could be formed	–
CC(C)c1nn(CC(=O)O)c2c(N=Nc3nnc(C(C)(C)C)s3)c(C(C)(C)C)nn12 [(A-20)]	a recording pit could be formed	–
Cn1c(O)c(N=Nc2c(C#N)c(C(C)(C)C)nn2-c2cc(C(=O)O)cc(C(=O)O)c2)c(=O)n(C)c1=O [(A-35)]	a recording pit could be formed	–
CC(C)c1nn2nc(C(C)(C)C)c(N=Nc3nnc(C(C)(C)C)s3)c2n1C [(A-49)]	a recording pit could be formed	–
CCC(CC)C(=O)n1c(N=Nc2c(C(C)(C)C)nn(C)c2N)nc(C#N)c1C#N [(A-51)]	a recording pit could be formed	–
CCCCn1c(O)c(N=Nc2cc([N+](=O)[O-])ccc2O)c(C)c(C#N)c1=O [Compound (A), reference compound]	–	Impossible^(3)
Cn1nc(C(C)(C)C)c(N=Nc2c(C#N)cnn2-c2cc(C(=O)O)cc(C(=O)O)c2)c1N [Compound (A-1)]	–	Excellent (Evaluated as “Excellent” when the 2T recording C/N was 35 dB or more)
Cc1nn2nc(C(C)(C)C)c(/N=N/c3c(C#N)cnn3-c3cc(C(=O)O)cc(C(=O)O)c3)c2n1C [Compound (A-7)]	–	Good (evaluated as “Good” when the ratio was 30 dB or more and less than 35 dB)
CCc1nnc(N=Nc2ccc(N3CCCC3)cc2NS(=O)(=O)C(F)(F)F)s1 [Compound (B), reference compound]	–	Impossible^(3)
CCCCC(CC)COC(=O)Nc1ccc(-c2nn3nc(C(C)(C)C)c(/N=N/c4c(C#N)cnn4-c4cc(C(=O)O)cc(C(=O)O)c4)c3[nH]2)cc1 (stereo not drawn) [Compound (C), reference compound]	–	Poor (evaluated as “Poor” when the ratio was less than 30 dB)
Cc1n[nH]c2c(/N=N/c3c(C#N)c(C(C)(C)C)nn3C)c(C(C)(C)C)nn12 [Compound (D), reference compound]	–	Poor (evaluated as “Poor” when the ratio was less than 30 dB)
